In assay [1] the target is T1, human thrombin receptor (PAR1) (human) (UniProt P25116).
T1 sequence (looked up): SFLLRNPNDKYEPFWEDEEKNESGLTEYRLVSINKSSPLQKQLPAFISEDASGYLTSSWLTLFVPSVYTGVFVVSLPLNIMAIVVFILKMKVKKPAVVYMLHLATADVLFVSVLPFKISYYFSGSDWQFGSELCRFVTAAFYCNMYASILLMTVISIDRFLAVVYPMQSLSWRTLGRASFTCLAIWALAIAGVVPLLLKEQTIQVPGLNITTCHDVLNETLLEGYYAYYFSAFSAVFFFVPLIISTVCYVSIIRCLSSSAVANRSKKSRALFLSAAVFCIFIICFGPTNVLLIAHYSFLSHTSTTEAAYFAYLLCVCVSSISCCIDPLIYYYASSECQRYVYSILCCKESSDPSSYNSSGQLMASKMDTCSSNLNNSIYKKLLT
Briefly: G11 library panning, recombinant reconstituted PAR1.

For assay [2], the target named is T1, human thrombin receptor (PAR1) (human). The assay can be described thus: LacI display panning, Sf9 membranes with PAR1.
Assay [3] shares this target. The assay can be described thus: G11 library panning, Sf9 expressed PAR1.
Assay [4] has the same target. Briefly: G11 library panning, CHO expressed PAR1.
The target is the same in assay [5]. Briefly: LacI display panning, purified PAR1 in lipid vesicles.

Results are given in words; binding and its absence hold for the method and conditions named. Some results given as binding are weak or reduced against the parent protein; the word gives no strength.

B1: … (G11 library) (peptide, not shown: small tags and cut ends)
chain: LQRNKNQYNLG
As to B1, the binding entry in assay [1] is recorded as “binds”.

B2: Clone S1-23 … (peptide, not shown: small tags and cut ends)
chain: GGHLELNLKVYNLF
Turning to B2, the binding entry in assay [2] and in assay [3] was “binds” in each case.

B3: … (G11 library) (peptide, not shown: small tags and cut ends)
chain: MQLNLKEYNLV
Consider B3, for which the binding entry in assay [4] is recorded as “binds”.

B4: … (G11 library) (peptide, not shown: small tags and cut ends)
chain: VQVKLKEYNLV
With B4, the binding result in assay [1] and in assay [4] was “binds” throughout.

B5: … (G11 library) (peptide, not shown: small tags and cut ends)
chain: LFLNLKEYSLV
As for B5, in assay [3], the binding result is given as “binds”.

B6: Clone R3-46 … (peptide, not shown: small tags and cut ends)
chain: MLNLRIYLKGYNLV
B6: the binding entry in assay [5] was “binds”.

B7: … (G11 library) (peptide, not shown: small tags and cut ends)
chain: LKRKVKEYNLG
As to B7, the binding result in assay [3] is given as “binds”.

B8: … (G11 library) (peptide, not shown: small tags and cut ends)
chain: SAKELDQYNLG
For the molecule B8, in assay [1], the binding entry is listed as “binds”.

B9: … (G11 library) (peptide, not shown: small tags and cut ends)
chain: LPRNLKEYDLG
As for B9, the binding entry in assay [3] is “binds”.

B10: Clone S3-15 … (peptide, not shown: small tags and cut ends)
chain: CVEMNLTLKECNLV
As to B10, the binding result in assay [2] and in assay [3] was “binds” throughout.

B11: Clone S2-26 … (peptide, not shown: small tags and cut ends)
chain: RSEVLQLKHKENNLM
As for B11, the binding entry in assay [2] and in assay [3] was “binds” in each case.

B12: … (G11 library) (peptide, not shown: small tags and cut ends)
chain: LVLNRIEYNLL
Take B12: the binding result in assay [3] was “binds”.

B13: … (G11 library) (peptide, not shown: small tags and cut ends)
chain: LPLNPKEYSLV
B13: in assay [3], the binding entry is “binds”.

B14: Clone R3-38 … (peptide, not shown: small tags and cut ends)
chain: MTHSVHVKLKEYNLV
Regarding B14, the binding entry in assay [5] and in assay [1] was “binds” in each case.

B15: Clone R2-21 … (peptide, not shown: small tags and cut ends)
chain: RLTRLQLRYKCYNLV
Turning to B15, the binding result in assay [5], in assay [1] and in assay [4] was “binds” throughout.

B16: … (G11 library) (peptide, not shown: small tags and cut ends)
chain: LQLRVKEYKRG
B16: the binding result in assay [1] and in assay [4] was “binds” each time.

B17: … (G11 library) (peptide, not shown: small tags and cut ends)
chain: LQIYLKGYNLV
With B17, the binding result in assay [1] and in assay [4] was “binds” throughout.

B18: … (G11 library) (peptide, not shown: small tags and cut ends)
chain: LQYNLKESFVV
Consider B18, for which, in assay [4], the binding result is “binds”.

B19: Clone S2-30 … (peptide, not shown: small tags and cut ends)
chain: CEPGLHLNMAEVSLV
On to B19, for which the binding result in assay [2] and in assay [3] was “binds” in each case.

B20: … (G11 library) (peptide, not shown: small tags and cut ends)
chain: LYLDLKEYCLF
Turning to B20, the binding entry in assay [1] is recorded as “binds”.

B21: Clone S3-8 … (peptide, not shown: small tags and cut ends)
chain: QMPNLQMYLRGYNLV
For the molecule B21, the binding entry in assay [2] and in assay [3] was “binds” each time.

B22: Clone R2-17 … (peptide, not shown: small tags and cut ends)
chain: FVNCLQRNKKQYNLG
As to B22, the binding result in assay [5], in assay [1] and in assay [4] was “binds” each time.

B23: Clone R2-16 … (peptide, not shown: small tags and cut ends)
chain: SWVLQFNLNDCNLV
In the case of B23, the binding entry in assay [5], in assay [1] and in assay [4] was “binds” throughout.

B24: … (G11 library) (peptide, not shown: small tags and cut ends)
chain: LQLNLKKYNRV
On to B24, for which, in assay [4], the binding result is recorded as “binds”.

B25: … (G11 library) (peptide, not shown: small tags and cut ends)
chain: LQRDHVEYKLF
Take B25: the binding result in assay [4] is “binds”.

B26: … (G11 library) (peptide, not shown: small tags and cut ends)
chain: QLLNQYVYNLV
Turning to B26, the binding result in assay [4] is “binds”.

B27: … (G11 library) (peptide, not shown: small tags and cut ends)
chain: LPLNLIDFSLM
For B27, the binding result in assay [3] was “binds”.

B28: Clone S3-6 … (peptide, not shown: small tags and cut ends)
chain: VPSPLQKNLKEYNMV
With B28, the binding result in assay [2] and in assay [3] was “binds” each time.

B29: … (G11 library) (peptide, not shown: small tags and cut ends)
chain: WRLSLKVYNLV
B29: the binding result in assay [4] is listed as “binds”.

B30: Clone S1-18 … (peptide, not shown: small tags and cut ends)
chain: RWIVLQLNLKVYNLV
For the molecule B30, the binding entry in assay [2] and in assay [3] was “binds” in each case.

B31: … (G11 library) (peptide, not shown: small tags and cut ends)
chain: IQLNLKNYNIV
As to B31, in assay [4], the binding entry is given as “binds”.

B32: … (G11 library) (peptide, not shown: small tags and cut ends)
chain: LRLNDIEALLV
Take B32: in assay [3], the binding entry was “binds”.

B33: … (G11 library) (peptide, not shown: small tags and cut ends)
chain: LVIKPKEFNLV
With B33, the binding entry in assay [4] was “binds”.

B34: … (G11 library) (peptide, not shown: small tags and cut ends)
chain: LQLDLKESNMV
For the molecule B34, the binding entry in assay [4] was “binds”.

B35: … (G11 library) (peptide, not shown: small tags and cut ends)
chain: LRLDFSEKQLV
For the molecule B35, the binding entry in assay [1] was “binds”.

B36: … (G11 library) (peptide, not shown: small tags and cut ends)
chain: LQLNRKNYNLV
On to B36, for which the binding result in assay [4] is reported as “binds”.

B37: Clone S3-10 … (peptide, not shown: small tags and cut ends)
chain: MWPSLKRYLKESNLV
Regarding B37, the binding result in assay [2] and in assay [3] was “binds” in each case.

B38: … (G11 library) (peptide, not shown: small tags and cut ends)
chain: LELNLKVYNLV
On to B38, for which the binding entry in assay [3] is “binds”.

B39: Clone S2-36 … (peptide, not shown: small tags and cut ends)
chain: HQMALQVNLEEYHLV
Turning to B39, the binding result in assay [2] and in assay [3] was “binds” each time.

B40: … (G11 library) (peptide, not shown: small tags and cut ends)
chain: LKRKLKESNMG
Take B40: the binding entry in assay [3] is “binds”.

B41: Clone S1-13 … (peptide, not shown: small tags and cut ends)
chain: SIRMKLNVSESNLV
With B41, the binding entry in assay [2] and in assay [3] was “binds” each time.

B42: Clone R3-44 … (peptide, not shown: small tags and cut ends)
chain: SGPQLQLNVKEYNLV
As to B42, the binding entry in assay [5], in assay [1] and in assay [4] was “binds” throughout.
